Laboratory results from PMC5785358, “The STENOFOLIA gene from Medicago alters leaf width, flowering time and chlorophyll content in transgenic wheat”.

Key:
[1] = target: T1, STFb-YC (STF a.a. 160-358 fused to a YFP fragment) (Medicago truncatula) (UniProt G0ZGT3); experiment: split reporter; BiFC: STFa or STFb in pEG202-YC with wheat proteins in pEG201-YN, transient expression in leaves of 5-week-old N. benthamiana; leaf discs imaged 3 days after infiltration
T1 sequence: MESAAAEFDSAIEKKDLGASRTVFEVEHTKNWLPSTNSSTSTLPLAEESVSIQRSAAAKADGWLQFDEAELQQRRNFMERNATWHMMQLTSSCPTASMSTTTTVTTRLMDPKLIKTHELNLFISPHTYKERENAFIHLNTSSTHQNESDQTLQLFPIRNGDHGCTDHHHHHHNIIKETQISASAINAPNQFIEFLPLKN

[2] = target: T2, STFa-YC (STF a.a. 1-242 fused to a YFP fragment) (Medicago truncatula) (UniProt G0ZGT3); experiment: as above
T2 sequence: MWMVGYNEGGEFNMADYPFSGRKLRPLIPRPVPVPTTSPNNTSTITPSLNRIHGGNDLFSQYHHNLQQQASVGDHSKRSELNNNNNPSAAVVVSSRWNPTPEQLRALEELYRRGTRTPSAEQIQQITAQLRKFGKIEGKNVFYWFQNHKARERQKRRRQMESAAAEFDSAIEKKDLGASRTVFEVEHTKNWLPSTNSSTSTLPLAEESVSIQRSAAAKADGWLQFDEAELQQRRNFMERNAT

Row | binding [1] | binding [2] | Substance
1 | binds | – | Ta6SFT1-YN (sucrose:fructan-6-fructosyltransferase fused to a YFP fragment) (wheat (Triticum aestivum))
2 | – | binds | TaSTK1-YN (serine/threonine kinase fused to a YFP fragment) (wheat (Triticum aestivum))
3 | – | binds | TaSRP1-YN (stress responsive protein fused to a YFP fragment) (wheat (Triticum aestivum))
4 | binds | – | TaCCDP1-YN (carbon catabolite-depressing protein kinase fused to a YFP fragment) (wheat (Triticum aestivum))

These are yes or no findings as the source states them, for the method shown. Binding seen in cells or lysates may run through a third protein. Binding can be weak; no strength is given. Tags and fused reporters may be left off the sequences shown.
